Results deposited as PubChem BioAssay AID504808 (Drosophila RNAi Screening Center, 2011)

- Test: 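Chromatin factors that keep E2F targets switched off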 (primary screen)
- System: Drosophila S2 cells
- Reagents: long dsRNA against Drosophila genes
- Read-out: 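Dual luciferase plate measurements; E2F-specific signal taken as firefly over Renilla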
- Direction: E2F firefly: higher = more E2F reporter activity; Renilla normaliser: higher = more normaliser reporter signal
- Call rule: 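a knock-down counted as active when the firefly/Renilla E2F signal rose above 50%, a threshold chosen arbitrarily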
The deposit covers about 21,000 reagents; this is a random part of those that have a named target and a result. Over the whole deposit, 18 (0.084%) are marked active. 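Raw counts without plate normalisation, one of two replicates; the ratio scores behind the calls were not deposited.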 Unmarked entries are inactive. Names joined by + are all predicted targets of the reagent. Not given: the amount of reagent, the time to read-out.

| gene knocked down | dsRNA | E2F firefly, rep 1 | Renilla normaliser, rep 1 |
| --- | --- | --- | --- |
| PK2-R1 (Pyrokinin 2 receptor 1) | DRSC16447 | 95933 | 5619 |
| tinc (tincar) | DRSC14798 | 1.40e5 | 7159 |
| tinc (tincar) | DRSC14799 | 1.48e5 | 7579 |
| tinc (tincar) | DRSC16308 | 1.15e5 | 6340 |
| tinc (tincar) | DRSC16309 | 1.14e5 | 6161 |
| CG6550 | DRSC07001 | 89054 | 3806 |
| Rbpn-5 (Rabaptin-5) | DRSC04440 | 83960 | 2971 |
| CG32170 | DRSC09452 | 1.35e5 | 4456 |
| CheA87a (Chemosensory protein A 87a) | DRSC14839 | 1.11e5 | 5088 |
| mof (males absent on the first) | DRSC18795 | 39920 | 3598 |
| Capa (Capability) | DRSC15058 | 1744 | 1040 |
| Mst84Dd (Male-specific RNA 84Dd) | DRSC12600 | 1.28e5 | 5712 |
| Vav (Vav guanine nucleotide exchange factor) | DRSC20384 | 1.17e5 | 5724 |
| CG33640 | DRSC01324 | 1.31e5 | 6308 |
| Arl6 (ADP ribosylation factor-like 6) | DRSC07031 | 1.57e5 | 5259 |
| CG34039 | DRSC09318 | 1.34e5 | 3672 |
| sif (still life) | DRSC08759 | 1.41e5 | 4777 |
| sif (still life) | DRSC11395 | 80048 | 3196 |
| unc-13-4A | DRSC10201 | 1.02e5 | 3826 |
| unc-13-4A | DRSC10202 | 95516 | 3442 |
| unc-13-4A | DRSC10203 | 67545 | 3383 |
| unc-13-4A | DRSC11013 | 95676 | 4308 |
| Neu2 (Neuroectoderm-expressed 2) | DRSC11819 | 1.29e5 | 8225 |
| tej (tejas) | DRSC07219 | 99934 | 4347 |
| CG8252 | DRSC07126 | 2808 | 214 |
| CG14618 | DRSC20631 | 1.35e5 | 5844 |
| ImpL1 (Ecdysone-inducible gene L1) | DRSC11197 | 79823 | 3755 |
| CG7069 | DRSC16188 | 68193 | 3468 |
| Sou (Souji) | DRSC04356 | 1.10e5 | 4873 |
| CG13919 | DRSC08388 | 92518 | 4267 |
| Pomp | DRSC03201 | 67068 | 3756 |
| Ugt37C1 (UDP-glycosyltransferase family 37 member C1) | DRSC07416 | 1.60e5 | 4767 |
| CG14591 | DRSC04868 | 1.08e5 | 4593 |
| CG7272 | DRSC10795 | 1.59e5 | 7371 |
| Mvd (Mevalonate diphosphate decarboxylase) | DRSC20096 | 8032 | 828 |
| kni (knirps) | DRSC11891 | 1.41e5 | 6135 |
| CG33128 | DRSC00294 | 1.68e5 | 5618 |
| TotF (Turandot F) | DRSC02305 | 90292 | 3860 |

Continued; the last 6 above are carried over.
| gene knocked down | dsRNA | E2F firefly, rep 1 | Renilla normaliser, rep 1 |
| --- | --- | --- | --- |
| CG14591 | DRSC04868 | 1.08e5 | 4593 |
| CG7272 | DRSC10795 | 1.59e5 | 7371 |
| Mvd (Mevalonate diphosphate decarboxylase) | DRSC20096 | 8032 | 828 |
| kni (knirps) | DRSC11891 | 1.41e5 | 6135 |
| CG33128 | DRSC00294 | 1.68e5 | 5618 |
| TotF (Turandot F) | DRSC02305 | 90292 | 3860 |
| JTBR | DRSC08667 | 1.04e5 | 4233 |
| Teh1 (tipE homolog 1) | DRSC14544 | 1.30e5 | 5232 |
| CG10694 | DRSC14263 | 1.07e5 | 6376 |
| Pstk + Tim9b | DRSC19504 | 1.71e5 | 5769 |
| Pstk + Tim9b | DRSC20292 | 1.43e5 | 5998 |
| RpL22-like (Ribosomal protein L22-like) | DRSC04582 | 1.04e5 | 4587 |
| vret (vreteno) | DRSC15640 | 74157 | 3490 |
| CG11786 | DRSC14389 | 1.36e5 | 7193 |
| CG3548 | DRSC04387 | 83372 | 3509 |
| CG14223 | DRSC19580 | 1.42e5 | 6734 |
| Lsp2 (Larval serum protein 2) | DRSC09841 | 1.21e5 | 7650 |
| Lsp2 (Larval serum protein 2) | DRSC11216 | 1.24e5 | 7283 |
| Rpn13 (Regulatory particle non-ATPase 13) | DRSC06379 | 85583 | 4550 |
| Usp15-31 (Ubiquitin specific protease 15/31) | DRSC04426 | 85626 | 3147 |
| Usp15-31 (Ubiquitin specific protease 15/31) | DRSC04532 | 96455 | 4179 |
| CSN4 (COP9 signalosome subunit 4) | DRSC07350 | 1.35e5 | 4437 |
| CG13920 | DRSC08389 | 75722 | 3609 |
| Dora (Dorado) | DRSC19614 | 1.34e5 | 5488 |
| Dora (Dorado) | DRSC19781 | 1.41e5 | 112 |
| Dora (Dorado) | DRSC20034 | 1.28e5 | 6198 |
| Dora (Dorado) | DRSC20035 | 98544 | 4521 |
| Nxt1 (NTF2-related export protein 1) | DRSC04630 | 94233 | 4664 |
| pwn (pawn) | DRSC06035 | 1.43e5 | 5002 |
| Dap160 (Dynamin associated protein 160) | DRSC03313 | 79066 | 2964 |
| Rox8 | DRSC16829 | 1.03e5 | 6233 |
| eIF3d2 (eukaryotic translation initiation factor 3 subunit d2) | DRSC15651 | 72321 | 3392 |
| Su(var)3-7 (Suppressor of variegation 3-7) | DRSC16872 | 1.07e5 | 5805 |
| Sas-6 (Spindle assembly abnormal 6) | DRSC15061 | 1.21e5 | 6510 |
| Non3 (Novel nucleolar protein 3) | DRSC16359 | 63290 | 3972 |
| ChT (Choline transporter) | DRSC16296 | 63093 | 3427 |
| CG42780 | DRSC17514 | 81429 | 2301 |
| Rcc1 (Regulator of chromosome condensation 1) | DRSC09684 | 73475 | 3452 |
| Rnp4F (RNA-binding protein 4F) | DRSC18706 | 7523 | 780 |
| CG13245 | DRSC02243 | 77887 | 3555 |
| mbl (muscleblind) | DRSC05657 | 1.61e5 | 7385 |
| mbl (muscleblind) | DRSC06449 | 65593 | 3310 |
| mbl (muscleblind) | DRSC07651 | 1.09e5 | 5133 |
| CG14435 | DRSC17928 | 57267 | 3901 |
| TwdlP (TweedleP) | DRSC14734 | 1.13e5 | 7322 |
| Nepl9 (Neprilysin-like 9) | DRSC02255 | 1.00e5 | 4266 |
| CG8155 | DRSC07084 | 82958 | 3603 |
| Zif (Zinc-finger protein) | DRSC12514 | 75647 | 3394 |
| Dhc64C (Dynein heavy chain 64C) | DRSC08656 | 78416 | 3595 |
| E(spl)m7-HLH (Enhancer of split m7, helix-loop-helix) | DRSC16696 | 1.17e5 | 6126 |
| CG13955 | DRSC06443 | 1.44e5 | 4990 |
| CG30098 | DRSC05605 | 1.56e5 | 5029 |
